In patent publication US11779628B2, “Use of cell-permeable peptide inhibitors of the JNK signal transduction pathway for the treatment of various diseases” (Xigen Inflammation Ltd., priority 2014, dated 2023):
For some assays here: At least one peptide structure holds a part that was inferred or is arguable (an end, a ring closure or a residue). For some assays here: For at least one compound, name, drawing or mass did not settle the structure. No end group written: not given here.

Key:
[1] = test system: C57BL/6N mice, MPTP; settings: Wang et al. 2004; cited from earlier work
[2] = test system: TC-3 cells; assay: IL-1 induced pancreatic beta-cell death; assay type: cell-based; settings: single addition 1 μM, 15 days with IL-1
Method: Inhibition of IL-1 induced pancreatic beta-cell death by the D-TAT-IB1(s) peptide was analyzed. […] Apoptotic cells were then counted after two days of incubation with IL-1 by use of Propidium Iodide and Hoechst 33342 nuclear staining. A minimum of 1,000 cells were counted for each experiment. Standard Error of the Means (SEM) are indicated, n=5. […] Long term inhibition of IL-1P induced cell-death by the D-TAT-IB1 peptide was also analyzed. […] Apoptotic cells were then counted after 15 days of incubation with IL-1 by use of propidium iodide and Hoechst 33342 nuclear staining. […] A minimum of 1.000 cells were counted for each experiment.

Compound	c-Jun phosphorylation, dopaminergic neurons, dopamine level [1]	long term protection from IL-1 induced cell death [2]
Oc1c2ccccc2c2c3c(cccc13)N=N2 [SP600125]	reduce the levels of c-Jun phosphorylation, to protect dopaminergic neurons from apoptosis, and to partly restore the level of dopamine	
GRKKRRQRRRPPRPKRPTTLNLFPQVPRSQD [L-TAT-IB1(s)]		but not L-TAT-IB1(s)
